The target of experiment [1] is T1, PLCXD2-FLAG (full-length mouse PLCXD2 with a C-terminal FLAG-tag) (mouse) (UniProt B2RXA1).
T1 sequence: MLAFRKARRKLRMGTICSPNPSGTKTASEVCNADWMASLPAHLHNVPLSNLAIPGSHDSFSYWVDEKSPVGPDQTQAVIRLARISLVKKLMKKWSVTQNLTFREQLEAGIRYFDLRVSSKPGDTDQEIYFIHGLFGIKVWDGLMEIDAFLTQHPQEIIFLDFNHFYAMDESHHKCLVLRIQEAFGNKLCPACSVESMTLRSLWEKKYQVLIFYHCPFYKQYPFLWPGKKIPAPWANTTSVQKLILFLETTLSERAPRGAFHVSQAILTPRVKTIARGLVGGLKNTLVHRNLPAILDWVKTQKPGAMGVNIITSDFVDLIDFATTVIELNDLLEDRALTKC
Nature of the experiment: co-IP.

Experiment [2] concerns the target T2, HA-GPR158 (full-length mouse GPR158 with an N-terminal HA-tag) (mouse) (UniProt Q8C419).
T2 sequence: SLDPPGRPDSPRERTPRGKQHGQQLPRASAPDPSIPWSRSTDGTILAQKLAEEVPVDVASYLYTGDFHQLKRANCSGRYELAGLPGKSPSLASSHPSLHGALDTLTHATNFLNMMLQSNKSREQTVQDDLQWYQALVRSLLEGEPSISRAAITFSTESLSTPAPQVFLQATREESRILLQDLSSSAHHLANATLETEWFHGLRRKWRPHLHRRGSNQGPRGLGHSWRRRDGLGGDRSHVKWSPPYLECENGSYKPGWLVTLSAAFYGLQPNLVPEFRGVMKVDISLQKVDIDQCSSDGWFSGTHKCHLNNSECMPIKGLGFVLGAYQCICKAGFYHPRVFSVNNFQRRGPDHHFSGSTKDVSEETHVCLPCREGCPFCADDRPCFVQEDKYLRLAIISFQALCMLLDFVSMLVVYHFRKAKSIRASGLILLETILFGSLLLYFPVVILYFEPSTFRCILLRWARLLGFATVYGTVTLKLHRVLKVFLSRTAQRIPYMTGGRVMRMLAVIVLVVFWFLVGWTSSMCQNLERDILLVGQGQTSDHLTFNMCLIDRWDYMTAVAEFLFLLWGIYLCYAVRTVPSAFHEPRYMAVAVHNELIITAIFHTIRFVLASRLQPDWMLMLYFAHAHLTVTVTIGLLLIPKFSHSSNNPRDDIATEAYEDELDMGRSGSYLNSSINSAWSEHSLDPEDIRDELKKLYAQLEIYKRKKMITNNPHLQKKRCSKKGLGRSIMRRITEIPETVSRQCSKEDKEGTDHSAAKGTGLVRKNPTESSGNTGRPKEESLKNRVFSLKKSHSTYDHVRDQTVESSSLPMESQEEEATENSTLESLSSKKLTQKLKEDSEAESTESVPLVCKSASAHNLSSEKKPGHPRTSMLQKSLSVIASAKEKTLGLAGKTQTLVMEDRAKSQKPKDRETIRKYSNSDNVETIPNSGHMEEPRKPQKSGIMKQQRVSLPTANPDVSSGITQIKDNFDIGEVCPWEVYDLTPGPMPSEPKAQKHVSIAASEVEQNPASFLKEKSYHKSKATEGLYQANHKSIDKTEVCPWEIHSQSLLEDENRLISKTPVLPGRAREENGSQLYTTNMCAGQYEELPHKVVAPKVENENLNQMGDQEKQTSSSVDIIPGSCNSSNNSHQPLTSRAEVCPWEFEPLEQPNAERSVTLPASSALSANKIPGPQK
Nature of the experiment: co-IP.

Experiment [3] has as its target T3, GPR158-CFAST (full-length mouse GPR158 with an N-terminal HA-tag and a C-terminal CFAST11-tag) (mouse) (UniProt Q8C419).
T3 sequence: T2 sequence
Kind of experiment: split reporter.

For experiment [4], the target named is T3, GPR158-CFAST (full-length mouse GPR158 with an N-terminal HA-tag and a C-terminal CFAST11-tag) (mouse). Nature of the experiment: split reporter. This is another data set of the same source.

Read-outs that look alike come from different tables or passages of the source. These are yes or no findings as the source states them, for the method shown. Binding seen in cells or lysates may run through a third protein. Some entries that bind do so weakly or less than the wild type. Tags and fused reporters may be left off the sequences shown.

B1: HA-GPR158 (full-length mouse GPR158 with an N-terminal HA-tag) (receptor, UniProt Q8C419 25-1200)
chain: T2 sequence
With B1, the binding result in experiment [1] is “binds”.

B2: PLCXD2-FLAG (full-length mouse PLCXD2 with a C-terminal FLAG-tag) (enzyme, UniProt B2RXA1 1-340)
chain: T1 sequence
With B2, the binding result in experiment [2] is listed as “binds”.

B3: PLCXD2-NFAST (full-length mouse PLCXD2 with a C-terminal FLAG-tag and NFAST-tag) (enzyme, UniProt B2RXA1 1-340)
chain: T1 sequence
Regarding B3, the binding result in experiment [3] and in experiment [4] was “binds” in each case.

The record behind these values is article doi:10.1101/2024.05.08.592949.
